Reference: PMC4537474
For at least one entry, the source does not settle the construct or the ends of the probe. A weaker result is weaker than the reference pair of the same experiment.

Chains of the proteins cited; added tags and fusions are not shown. Lines headed by an entry give the natural chain unless they say otherwise; changes in a name come on top.
UniProt P0A8V6: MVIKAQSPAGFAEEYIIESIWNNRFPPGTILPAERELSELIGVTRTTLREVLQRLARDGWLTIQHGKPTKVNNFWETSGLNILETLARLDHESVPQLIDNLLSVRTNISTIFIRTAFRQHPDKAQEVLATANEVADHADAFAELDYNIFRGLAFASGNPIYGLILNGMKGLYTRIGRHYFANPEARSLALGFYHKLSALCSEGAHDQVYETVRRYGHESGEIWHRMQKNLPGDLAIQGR
UniProt Q8ED80: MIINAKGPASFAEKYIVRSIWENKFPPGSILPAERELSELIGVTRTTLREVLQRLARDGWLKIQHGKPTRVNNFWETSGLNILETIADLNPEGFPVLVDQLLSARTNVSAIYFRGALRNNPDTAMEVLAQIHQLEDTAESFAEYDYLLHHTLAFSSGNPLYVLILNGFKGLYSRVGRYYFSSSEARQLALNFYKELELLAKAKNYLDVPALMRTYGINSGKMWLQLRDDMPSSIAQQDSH

Tests used:
[1] = molecular target: FadR_ec (Escherichia coli (K-12)) (UniProt P0A8V6); experiment: EMSA; settings: EMSA: Roche binding buffer, 20 min, room temperature, 0.2 pmol DIG probe (10 uL in Fig. 6), 7% native PAGE, recombinant protein, residues 1-239, protein details: 6xHis (pET28), label: digoxigenin
FadR_she = FadR_she (UniProt Q8ED80); experiment: EMSA; settings: EMSA: Roche binding buffer, 20 min, room temperature, 0.2 pmol DIG probe (10 uL in Fig. 6), 7% native PAGE, recombinant protein, residues 1-240, protein details: 6xHis (pET28a), label: digoxigenin

Measured: binding result

GACATTAATTAGCTGATCGGAGTTGTTTAGCTTACACGTGTTCGCTAATCTTGGCG (double strand) [fabA_she probe]
binds more weakly: [1]; C16:0-CoA ~50 pmol | [1]; C16:1-CoA ~50 pmol | [1]; C18:0-CoA ~50 pmol | [1]; C18:1-CoA ~50 pmol | FadR_she; C16:0-CoA ~50 pmol | FadR_she; C16:1-CoA ~50 pmol | FadR_she; C18:0-CoA ~50 pmol | FadR_she; C18:1-CoA ~50 pmol
